Measured values published in patent US20250206779A1 (UNIVERSIDAD DE CHILE, priority 2021, published 2025).

Experiment: general procedure: Fmoc solid-phase peptide synthesis
Details: whole synthesis, photodiode array detector

H-[dH][dF][dP][dH][dI][dY][dV][dR][dD]-OH (SMILES CC[C@@H](C)[C@@H](NC(=O)[C@@H](Cc1c[nH]cn1)NC(=O)[C@H]1CCCN1C(=O)[C@@H](Cc1ccccc1)NC(=O)[C@H](N)Cc1c[nH]cn1)C(=O)N[C@H](Cc1ccc(O)cc1)C(=O)N[C@@H](C(=O)N[C@H](CCCNC(=N)N)C(=O)N[C@H](CC(=O)O)C(=O)O)C(C)C)
purity (crude or final not stated): >98%

[ ]: non-standard residue; d: D form.
